Patent US6054556A, “Melanocortin receptor antagonists and agonists” (The Arizona Board of Regents on Behalf of the University of …, priority 1997, dated 2000)
At least one peptide structure holds a part that was inferred or is arguable (an end, a ring closure or a residue). Where a SMILES comes first, the peptide text is derived from it. Bridges are numbered along the chain shown (N, C = ends). [ ]: non-standard residue; d: D form. Ala(4-thiazolyl) = N[C@@H](Cc1cscn1)C(=O)O; 2Nal = N[C@@H](Cc1ccc2ccccc2c1)C(=O)O; d2Nal = N[C@H](Cc1ccc2ccccc2c1)C(=O)O; Nle = CCCC[C@H](N)C(=O)O

The chains behind the UniProt entries cited, without tags or fusion partners. Where a name states a change or a piece, a line headed by the entry shows the natural chain unless it says otherwise.
UniProt P41149: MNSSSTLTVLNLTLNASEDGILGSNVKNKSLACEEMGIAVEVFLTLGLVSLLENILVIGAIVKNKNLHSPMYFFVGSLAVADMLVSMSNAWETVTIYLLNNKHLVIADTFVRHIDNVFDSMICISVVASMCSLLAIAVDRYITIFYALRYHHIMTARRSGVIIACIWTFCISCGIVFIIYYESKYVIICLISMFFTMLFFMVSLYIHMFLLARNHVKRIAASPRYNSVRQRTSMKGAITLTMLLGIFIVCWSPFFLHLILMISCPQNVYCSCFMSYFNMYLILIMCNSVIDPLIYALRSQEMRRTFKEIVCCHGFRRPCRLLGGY
UniProt P32245, whole entry: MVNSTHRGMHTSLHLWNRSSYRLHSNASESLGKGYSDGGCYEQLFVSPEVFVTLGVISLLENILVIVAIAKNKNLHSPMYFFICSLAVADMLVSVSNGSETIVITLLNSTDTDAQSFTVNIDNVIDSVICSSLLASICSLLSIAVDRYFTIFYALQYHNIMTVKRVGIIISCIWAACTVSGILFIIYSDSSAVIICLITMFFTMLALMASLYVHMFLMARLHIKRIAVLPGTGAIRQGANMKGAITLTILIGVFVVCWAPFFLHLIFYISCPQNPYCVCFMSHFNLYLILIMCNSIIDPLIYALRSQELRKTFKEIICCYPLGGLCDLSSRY
UniProt P41968: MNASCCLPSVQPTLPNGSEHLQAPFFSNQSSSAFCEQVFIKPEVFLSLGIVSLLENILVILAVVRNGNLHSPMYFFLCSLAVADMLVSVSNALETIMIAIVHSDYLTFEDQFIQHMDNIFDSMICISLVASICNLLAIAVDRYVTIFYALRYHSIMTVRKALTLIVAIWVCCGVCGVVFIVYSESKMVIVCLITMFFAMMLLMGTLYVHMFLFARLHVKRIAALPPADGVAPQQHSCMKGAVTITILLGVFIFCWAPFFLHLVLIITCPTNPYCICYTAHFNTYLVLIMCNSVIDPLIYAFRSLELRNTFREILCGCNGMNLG

Tests used:
Type in all cases: cell-based
frog (Rana pipiens) skin = assay: Frog skin bioassay (skin darkening, photoreflectance); conditions: for Frog Skin: agonist/antagonist activity: melanin dispersion vs α-MSH
Experimental: Bioassays were performed on frog (Rana pipiens) skin according to published protocols [see J. Med. Chem. 30:2126 (1987) and Gen. Comp. Endocrinol. 55:104 (1984)]. Briefly, in these assays the darkening of skin due to dispersion of melanin granules within the melanocytes in response to the melanotropin peptides according to the present invention is measured by photoreflectance methods. The agonist potency of each peptide was determined from the dose response curves comparing the skin darkening with that produced by the native hormone, α-MSH. Prolongation of the biological response was measured by continued monitoring of the melanosome dispersion for up to 3 hours following removal of the peptide in the bathing solution through washing of the skins. The antagonistic activity profile was measured by pre-incubating the skins for 1 hour in various concentrations of the antagonist. After pre-incubation, a known concentration of α-MSH was added and its melanotropic activity determined. Dose-response curves generated for α-MSH in this manner were used to determine the pA2 values (representing the -log10 of the average molar concentration of the antagonist that will reduce the response of α-MSH (agonist) from 2X units to X units) [see Br. J. Pharmacol. 2:189 (1947)].

mMC5-R = molecular target: T1, mMC5-R (Mus musculus, UniProt P41149); assay: cAMP-dependent pCRE/β-galactosidase reporter assay in Clonal 293 cells expressing mouse MC5-R
T1 construct: expressed in transfected cells
Experimental: Transduction was measured by its affect on cAMP production using the following method.
(§1) 4 μg of pCRE/β-galactosidase DNA was used for transfection of a 10 cm dish of cells. After 15 to 24 hours post-transfection, cells were split into 96-well plates with 20,000 to 30,000 cells per well, and incubated at 37° C. in a 5% CO2 incubator until 48 hours post-transfection.Cells were then stimulated with different peptides diluted in stimulation medium (Dulbecco's modified Eagle's medium containing 0.1 mg/ml bovine serum albumin and 0.1 mM isobutylmethylxanthine) for 6 hours. Agonist activity was measured by stimulating cells with various concentrations of peptide, and antagonist activity was measured by stimulating MC3 and MC4 receptor cell lines with […]. After stimulation, cells were lysed in 50 μl lysis buffer (250 mM Tris-HCl, pH 8.0, 0.1% Triton X-100), frozen and thawed, and then assayed for b-galactosidase activity.

hMC4-R = molecular target: T2, hMC4-R (Homo sapiens, UniProt P32245); assay: cAMP-dependent pCRE/β-galactosidase reporter assay in Clonal 293 cells expressing human MC4-R
T2 construct: expressed in transfected cells
Experimental: (§2) The peptides according to the present invention were assayed for agonist and antagonist activity using cloned hMC1, mMC1-R, hMC3-R, hMC4-R and mMC5-R transfected into the stable cell line Clonal 293. Transduction was measured by its affect on cAMP production using the following method.
as §1, with “Clonal 293 cell lines expressing the human MSH receptor, human MC3-R, human MC4-R, and mouse MC5-R were transfected with a pCRE/β-galactosidase construct using a CaPO4 method [see Mol. Cell. Biol. 7:2745 (1987)]. 4 μg” for “4 μg”

hMC3-R = molecular target: T3, hMC3-R (Homo sapiens, UniProt P41968); assay: cAMP-dependent pCRE/β-galactosidase reporter assay in Clonal 293 cells expressing human MC3-R
T3 construct: expressed in transfected cells
Experimental: as §2
as §1, with “Clonal 293 cell lines expressing the human MSH receptor, human MC3-R, human MC4-R, and mouse MC5-R were transfected with a pCRE/β-galactosidase construct using a CaPO4 method [see Mol. Cell. Biol. 7:2745 (1987)]. 4 μg” for “4 μg”

Row | SMILES | Frog Skin: reversibility of antagonism (frog (Rana pipiens) skin) | Frog Skin: agonist/antagonist activity (frog (Rana pipiens) skin) | mMC5-R: potency range (mMC5-R) | mMC5-R: agonist/antagonist activity (mMC5-R; cAMP/β-galactosidase) | hMC4-R: potency range (hMC4-R) | hMC4-R: agonist/antagonist activity (hMC4-R; cAMP/β-galactosidase) | hMC3-R: potency range (hMC3-R) | hMC3-R: agonist/antagonist activity (hMC3-R; cAMP/β-galactosidase) | Frog Skin: potency range of antagonism (frog (Rana pipiens) skin)
1 | CCCC[C@H](NC(C)=O)C(=O)N[C@H]1CC(=O)NCCCC[C@@H](C(N)=O)NC(=O)[C@H](Cc2c[nH]c3ccccc23)NC(=O)[C@H](CCCNC(=N)N)NC(=O)[C@@H](Cc2ccc3ccccc3c2)NC(=O)[C@H](Cc2cscn2)NC1=O [Compound 4, Ac-Nle-c[Asp-Tal(4')-D-Nal(2')-Arg-Trp-Lys]-NH2] | Irreversible | Antagonist |  |  |  |  |  |  | 
2 | CCCC[C@H](NC(C)=O)C(=O)N[C@H]1CC(=O)NCCCC[C@@H](C(N)=O)NC(=O)[C@H](Cc2ccc3ccccc3c2)NC(=O)[C@H](CCCNC(=N)N)NC(=O)[C@@H](Cc2ccc3ccccc3c2)NC(=O)[C@H](Cc2cscn2)NC1=O [Compound 7, Ac-Nle-c[Asp-Tal(4')-D-Nal(2')-Arg-Nal(2')-Lys]-NH2] (Ac-[Nle]D[Ala(4-thiazolyl)][d2Nal]R[2Nal]K-NH2; lactam 2-7) | Irreversible | Antagonist | pM range | Antagonist | nM range | Antagonist | nM range | Antagonist | 
3 | CCCC[C@H](NC(C)=O)C(=O)N[C@H]1CC(=O)NCCCC[C@@H](C(N)=O)NC(=O)[C@H](Cc2c[nH]c3ccccc23)NC(=O)[C@H](CCCNC(=N)N)NC(=O)[C@@H]([C@H](C)c2ccc3ccccc3c2)NC(=O)[C@H](Cc2c[nH]cn2)NC1=O [Compound 8, Ac-Nle-c[Asp-His-(2R,3R)-β-MeNal(2')-Arg-Trp-Lys]-NH2] |  | Antagonist |  |  |  |  |  |  | μM range
4 | CCCC[C@H](NC(C)=O)C(=O)N[C@H]1CC(=O)NCCCC[C@@H](C(N)=O)NC(=O)[C@H](Cc2c[nH]c3ccccc23)NC(=O)[C@H](CCCNC(=N)N)NC(=O)[C@@H]([C@@H](C)c2ccc3ccccc3c2)NC(=O)[C@H](Cc2c[nH]cn2)NC1=O [Compound 9, Ac-Nle-c[Asp-His-(2R,3S)-β-MeNal(2')-Arg-Trp-Lys]-NH2] |  | Antagonist |  |  |  |  |  |  | μM range
